PubChem BioAssay AID504786 – Drosophila RNAi Screening Center – 2011
Test: 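Knock-downs reducing HIF reporter induction by the iron chelator DFO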 (primary screen). Cell system: Drosophila S2 cells with a stable HIF luciferase reporter. Reagents: long dsRNA against Drosophila genes, about 0.2 µg dsRNA per well of a 384-well plate. Time to read-out: three days of knock-down, then 20 h of DFO before reading. Challenge: desferrioxamine (DFO) at 100 µM, an iron chelator that mimics hypoxia, for 20 h. Read-out: 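Firefly luciferase driven by the mouse ldh-a hypoxia-response element, measured after 20 h of 100 µM DFO; z-scores per plate, higher means more signal lost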. Scale: z-score: higher = stronger loss of HIF reporter signal.
The screen tested about 21,000 reagents; this is a random part of those that have a named target and a result. 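Primary screen; positive scores mean lost reporter signal, so the sign may be inverted from the usual convention.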 Reagents against one gene are numbered here. Names joined by + are all predicted targets of the reagent. Further read-outs or replicates are left out here. Reagent sequences are not shown.

The first 13 entries, ahead of the listing:
Gene	reagent	z-score, replicate 1
CG15873 (GeneID 37898)	1	0.1
MP1 (GeneID 40541)	1	-0.3
Cpr47Ef (GeneID 36194)	1	-0.1
CG42674 (GeneID 40205)	1	0.6
CG42674 (GeneID 40205)	2	-0.2
CG42674 (GeneID 40205)	3	-0.3
Nup154 (GeneID 34527)	1	0.5
flfl (GeneID 41675)	1	-0.6
CG13643 (GeneID 50074)	1	-0.1
CG13643 (GeneID 50074)	2	-0.2
DIP-alpha (GeneID 31322)	1	-0.7
DIP-alpha (GeneID 31322)	2	1.2
Efa6 (GeneID 42665)	1	0.9

Main list, repeating the preview:
Gene	reagent	z-score, replicate 1
CG15873 (GeneID 37898)	1	0.1
MP1 (GeneID 40541)	1	-0.3
Cpr47Ef (GeneID 36194)	1	-0.1
CG42674 (GeneID 40205)	1	0.6
CG42674 (GeneID 40205)	2	-0.2
CG42674 (GeneID 40205)	3	-0.3
Nup154 (GeneID 34527)	1	0.5
flfl (GeneID 41675)	1	-0.6
CG13643 (GeneID 50074)	1	-0.1
CG13643 (GeneID 50074)	2	-0.2
DIP-alpha (GeneID 31322)	1	-0.7
DIP-alpha (GeneID 31322)	2	1.2
Efa6 (GeneID 42665)	1	0.9
Efa6 (GeneID 42665)	2	0
Efa6 (GeneID 42665)	3	-0.1
CG14286 (GeneID 42280)	1	-0.1
COX6CL (GeneID 318868)	1	0.7
Gbp3 (GeneID 42709)	1	-0.1
CG16952 (GeneID 32546)	1	-0.3
CG15554 (GeneID 43680)	1	-0.4
Ir84a (GeneID 40891)	1	-0.2
CG42709 (GeneID 39453)	1	-0.3
CG9192 (GeneID 38134)	1	-0.2
Eip78C (GeneID 40345)	1	2
ACXB (GeneID 53427)	1	-0.3
CG13004 (GeneID 32673)	1	-0.2
DEF8 (GeneID 39381)	1	-0.2
CG2120 (GeneID 31737)	1	-0.3
Tim17b2 (GeneID 44381)	1	2.7
CG34224 (GeneID 5740585)	1	0.1
l(3)72Dn (GeneID 39774)	1	-0.2
CG3288 (GeneID 40307)	1	-0.3
Targ (GeneID 36630)	1	-0.2
TTLL4B (GeneID 33609)	1	-0.2
Prosbeta2R2 (GeneID 40621)	1	-0.3
CG34433 (GeneID 5740702)	1	-0.3
CG12691 (GeneID 31370)	1	-0.2
Obp56c (GeneID 170882)	1	-0.4
CG4332 (GeneID 32267)	1	-0.4
CG5111 (GeneID 43085)	1	0.1
tHMG1 (GeneID 42650)	1	-0.3
CG12498 (GeneID 31272)	1	-0.1
Est-P (GeneID 39393)	1	-0.3
CG3842 (GeneID 31576)	1	-0.3
l(3)62Be (retired record) (GeneID 48504)	1	0.5
TwdlQ (GeneID 43214)	1	0
feo (GeneID 32015)	1	-0.7
ProtB (GeneID 34867)	1	-0.3
Usp15-31 (GeneID 37954)	1	0.4
Usp15-31 (GeneID 37954)	2	0.6
CG10336 (GeneID 35122)	1	-0.4
CG43325 (GeneID 246515)	1	-0.4
CG4650 (GeneID 34859)	1	-0.3
CG12519 (GeneID 40114)	1	-0.3
sosie (GeneID 42961)	1	-0.4
salm (GeneID 34569)	1	-0.2
Mco3 (GeneID 43134)	1	0
Ranbp16 (GeneID 118436)	1	-0.4
mthl4 (GeneID 36960)	1	-0.2
cv (GeneID 44510)	1	-0.2
TBPH (GeneID 37781)	1	-0.4
CG4653 (GeneID 32650)	1	-0.2
Cpr67B (GeneID 39081)	1	-0.4
fend (GeneID 31843)	1	-0.5
fend (GeneID 31843)	2	-0.2
Naam (GeneID 42348)	1	-1.1
CG5250 (GeneID 42308)	1	-0.1
chif (GeneID 34974)	1	0.8
sens-2 (GeneID 33957)	1	-0.4
sens-2 (GeneID 33957)	2	-0.4
Desat2 (GeneID 41536)	1	-0.4
CG7992 (GeneID 32917)	1	-0.4
Desat1 (GeneID 117369)	1	0.1
CG5521 (GeneID 43242)	1	-0.1
CG6753 (GeneID 41557)	1	-0.4
CG15040 (GeneID 32848)	1	-1.3
CG17019 (GeneID 36425)	1	-0.3
CG43773 (GeneID 33617)	1	0.5
CG43773 (GeneID 33617)	2	-0.3
Men-b (GeneID 43936)	1	-0.5
CG11247 (GeneID 40414)	1	-0.3
Mitf (GeneID 3885647)	1	-0.3
Mitf (GeneID 3885647)	2	-0.2
CG6650 (GeneID 39555)	1	-0.4
CG16995 (GeneID 33413)	1	-0.2
Cep290 (GeneID 38099)	1	-0.3
CG13784 (GeneID 34003)	1	-0.4
CG13784 (GeneID 34003)	2	-0.1
cact (GeneID 34969)	1	0.4
Rim (GeneID 42150)	1	-1.1
Rim (GeneID 42150)	2	1
Rim (GeneID 42150)	3	-0.2
Rim (GeneID 42150)	4	-0.5
CG14907 + Mettl4	1	-0.5
CG14907 + Mettl4	2	-0.4
CG42821 + CG42822	1	-0.3
CG42821 + CG42822	2	-0.4
SF1 (GeneID 43912)	1	0.5
CG1924 (GeneID 32180)	1	0
Acp63F (GeneID 38448)	1	-0.2
Mitofilin (GeneID 42587)	1	0
Cndp2 (GeneID 35507)	1	-0.1
CG17746 (GeneID 38400)	1	-0.4
Ccp84Af (GeneID 40820)	1	-0.1
Ror (GeneID 34367)	1	-0.2
CG1578 (GeneID 32135)	1	-0.2
